Measured values from the supplement of paper PMC6414424.
± gives the standard deviation of the averaged measurements. The list shows a part of the results.

Tested on: APPdp1-6 iPSC-derived neurons
Test: pThr231Tau/total Tau ratio Z-score vs DMSO vehicle wells; higher = more pThr231Tau relative to total Tau
Details: 5 µM; treatment time 5 days

| Compound | pThr231Tau/total Tau ratio Z-score |
| --- | --- |
| O=[N+]([O-])O[C@@H]1CO[C@H]2[C@@H]1OC[C@@H]2O [Prestw-1294] | 0.482 ± 0.75 |
| N[C@@H](Cc1ccc(N(CCCl)CCCl)cc1)C(=O)O | 0.511 ± 1 |
| OC1CCCCC1N1CCC(c2ccccc2)CC1 (configuration not stated) [Prestw-920] | 0.349 ± 0.4 |
| CC(C)N(CCC(C(N)=O)(c1ccccc1)c1ccccn1)C(C)C (configuration not stated) [Prestw-266] | 0.338 ± 0.034 |
| C[C@H](N)[C@H](O)c1ccc(O)c(O)c1 [Prestw-739] | -0.353 ± 1.8 |
| O=C1CN=C(c2ccccc2Cl)c2cc([N+](=O)[O-])ccc2N1 [CLONAZEPAM, anticonvulsant, sedative] | -0.672 ± 0.44 |
| CCC(=O)O[C@@](Cc1ccccc1)(c1ccccc1)[C@@H](C)CN(C)C [Prestw-1054] | -1.46 ± 1.2 |
| NCCc1cc(O)c(O)cc1O [6-Hydroxydopamine] | -0.00823 ± 0.54 |
| CCCC[N+]1(C)[C@@H]2CC(OC(=O)[C@H](CO)c3ccccc3)C[C@H]1[C@@H]1O[C@@H]12 (some centres not stated) [Prestw-1253] | -0.613 ± 0.39 |
| N#Cc1nn(-c2c(Cl)cc(C(F)(F)F)cc2Cl)c(N)c1[S+]([O-])C(F)(F)F (configuration not stated) [FIPRONIL, GABA Cl channel agonist, antiparasitic] | 2 ± 2.1 |
| O=C1C[C@@H]2OCC=C3CN4CC[C@]56c7ccccc7N1[C@H]5[C@H]2[C@H]3C[C@H]46 | -4.19 ± 0.92 |
| CC[C@@]1(O)C(=O)OCc2c1cc1n(c2=O)Cc2cc3ccccc3nc2-1 [Prestw-200] | -2.42 ± 0.65 |
| CN(C)[C@@H]1C(=O)C(C(N)=O)=C(O)[C@@]2(O)C(=O)C3=C(O)c4c(O)ccc(Cl)c4[C@@](C)(O)[C@H]3C[C@@H]12 [Prestw-145] | 0.971 ± 0.44 |
| CC(CCc1ccccc1)NC(C)C(O)c1ccc(O)cc1 (configuration not stated) [Prestw-1454] | 0.517 ± 0.38 |
| CC(=O)OC1CN2CCC1CC2 (configuration not stated) [Prestw-1511] | -0.0894 ± 0.28 |
| C[N+](C)(C)CCCCCCCCCC[N+](C)(C)C [Prestw-968] | -1.02 ± 0.27 |
| c1ccc2nc(N3CCNCC3)ccc2c1 [Prestw-617] | 0.63 ± 0.75 |
| CN1C[C@H](C(=O)N[C@]2(C)O[C@@]3(O)[C@@H]4CCCN4C(=O)[C@H](Cc4ccccc4)N3C2=O)C[C@@H]2c3cccc4[nH]cc(c34)C[C@H]21 [Prestw-150] | 0.551 ± 1.4 |
| C[N+]1(C)[C@@H]2CC[C@H]1C[C@@H](OC(=O)C(CO)c1ccccc1)C2 (some centres not stated) [Prestw-900] | 0.75 ± 0.8 |
| Oc1cccc2cccnc12 [OXYQUINOLINE    Therap cat:  Disinfectant] | -3.64 ± 0.7 |
| CCCN1C[C@H](CSC)C[C@@H]2c3cccc4[nH]cc(c34)C[C@H]21 [Prestw-295] | -0.0121 |
| N.N.[Cl][Pt][Cl] | 0.691 ± 0.79 |
| CNc1ccc(C(=O)CC(O)CCC(C)C2OC(=O)CC(O)CC(=O)CC(O)CC(O)CC(O)CC(O)CC3(O)CC(O)C(C(=O)OC)C(CC(O[C@@H]4O[C@H](C)[C@@H](O)[C@H](N)[C@@H]4O)/C=C/C=C/C=C/C=C/C=C/C=C/C=C/C2C)O3)cc1.COC(=O)C1C(O)CC2(O)CC(O)CC(O)CC(O)CC(O)CC(=O)CC(O)CC(=O)OC(C(C)CCC(O)CC(=O)c3ccc(N)cc3)C(C)/C=C/C=C/C=C/C=C/C=C/C=C/C=C/C(O[C@@H]3O[C@H](C)[C@@H](O)[C@H](N)[C@@H]3O)CC1O2 (some centres not stated) | -0.0307 ± 0.26 |
| Cc1ncc(CNC(=O)N(CCCl)N=O)c(N)n1 | -0.4 ± 1 |

4 entries drawn at random from those above:

| Compound | pThr231Tau/total Tau ratio Z-score |
| --- | --- |
| N#Cc1nn(-c2c(Cl)cc(C(F)(F)F)cc2Cl)c(N)c1[S+]([O-])C(F)(F)F (configuration not stated) [FIPRONIL, GABA Cl channel agonist, antiparasitic] | 2 ± 2.1 |
| NCCc1cc(O)c(O)cc1O [6-Hydroxydopamine] | -0.00823 ± 0.54 |
| c1ccc2nc(N3CCNCC3)ccc2c1 [Prestw-617] | 0.63 ± 0.75 |
| CC(CCc1ccccc1)NC(C)C(O)c1ccc(O)cc1 (configuration not stated) [Prestw-1454] | 0.517 ± 0.38 |

Further entries follow.

| Compound | pThr231Tau/total Tau ratio Z-score |
| --- | --- |
| C[N+]1(C)CCOC(O)(c2ccc(-c3ccc(C4(O)C[N+](C)(C)CCO4)cc3)cc2)C1 (configuration not stated) [Prestw-393] | -0.0897 ± 1.3 |
| Nc1ccncc1 | -0.237 ± 0.012 |
| C[C@]12CCC(=O)C=C1CC[C@@H]1[C@@H]2C(=O)C[C@]2(C)C(=O)CC[C@@H]12 [Prestw-899] | -0.405 ± 0.14 |
| CN1C2CC(OC(=O)C(CO)c3ccccc3)CC1C(O)C2 (configuration not stated) | -0.275 ± 1.2 |
| COc1ccc(C(=O)N2CCCC2=O)cc1 [Prestw-1178] | 1.09 ± 1.1 |
| O=C(O)CCCc1ccc(N(CCCl)CCCl)cc1 [Prestw-1079] | 0.356 ± 1.6 |
| CC[C@@H](C(N)=O)N1CCCC1=O [Prestw-1427] | 1.88 ± 0.92 |
| O=C1C=C2C=C[C@@H]3C[C@@]2(O1)[C@H]1CCCCN31 | 0.387 ± 0.24 |
| CCN[C@@H](C)Cc1cccc(C(F)(F)F)c1 [Prestw-1392] | -0.41 ± 0.77 |
| CC(C)=CC1C(C(=O)OCc2cccc(Oc3ccccc3)c2)C1(C)C (configuration not stated) [PHENOTHRIN     Therap cat: ectoparasiticide] | 0.838 ± 0.73 |
| C[CH2][Hg][S]c1ccccc1C(=O)[O-].[Na+] [Prestw-1194] | -3.28 ± 1.2 |
| CN(C)C(=O)Oc1cc(OC(=O)N(C)C)cc(C(O)CNC(C)(C)C)c1 (configuration not stated) [Prestw-361] | -0.241 ± 1.8 |
| CCn1cc(C(=O)O)c(=O)c2cc3c(cc21)OCO3 [Prestw-193] | -0.185 ± 0.23 |
| CCC1(c2ccc(N)cc2)CCC(=O)NC1=O (configuration not stated) [Prestw-244] | -1.77 ± 0.91 |
| CC[C@@]1([C@@H]2O[C@@H]([C@H]3O[C@@](O)(CO)[C@H](C)C[C@@H]3C)C[C@@H]2C)CC[C@H]([C@]2(C)CC[C@]3(C[C@H](O)[C@@H](C)[C@@H]([C@@H](C)[C@@H](OC)[C@H](C)C(=O)O)O3)O2)O1 [Prestw-748] | -2.9 ± 2.4 |
| CCN(C)C(=O)Oc1cccc([C@H](C)N(C)C)c1 [Prestw-1334] | -0.0666 ± 0.031 |
| C[C@@H]1O[C@@H](O[C@H]2C[C@@H](O)[C@]3(CO)[C@H]4[C@H](O)C[C@]5(C)[C@@H](C6=CC(=O)OC6)CC[C@]5(O)[C@@H]4CC[C@]3(O)C2)[C@H](O)[C@H](O)[C@H]1O | -4.77 ± 1.1 |
| CN1[C@@H]2CC[C@H]1C[C@@H](OC1c3ccccc3CCc3ccccc31)C2 [Prestw-1013] | -1.59 |
| O=[N+]([O-])c1cc([As](=O)(O)O)ccc1O [Prestw-970] | -0.77 ± 0.77 |
| CCC(N)C(O)c1ccc(O)c(O)c1 (configuration not stated) | -1.42 ± 0.071 |
| CC(=O)O[C@H]1C[C@H](O[C@H]2[C@@H](O)C[C@H](O[C@H]3[C@@H](O)C[C@H](O[C@H]4CC[C@@]5(C)[C@H](CC[C@@H]6[C@@H]5C[C@@H](O)[C@]5(C)[C@@H](C7=CC(=O)OC7)CC[C@]65O)C4)O[C@@H]3C)O[C@@H]2C)O[C@H](C)[C@H]1O[C@@H]1O[C@H](CO)[C@@H](O)[C@H](O)[C@H]1O [Prestw-656] | -3.79 ± 0.22 |
| C[C@]12N[C@H](Cc3ccccc31)c1ccccc12 [Prestw-109] | -0.241 ± 0.19 |
| C[C@]12N[C@H](Cc3ccccc31)c1ccccc12 [Prestw-935] | 0.0777 ± 0.079 |

Rewritten with bars between the fields: entries from further up.
Compound | pThr231Tau/total Tau ratio Z-score
C[C@@H]1O[C@@H](O[C@H]2C[C@@H](O)[C@]3(CO)[C@H]4[C@H](O)C[C@]5(C)[C@@H](C6=CC(=O)OC6)CC[C@]5(O)[C@@H]4CC[C@]3(O)C2)[C@H](O)[C@H](O)[C@H]1O | -4.77 ± 1.1
CN1[C@@H]2CC[C@H]1C[C@@H](OC1c3ccccc3CCc3ccccc31)C2 [Prestw-1013] | -1.59

Later entries.

| Compound | pThr231Tau/total Tau ratio Z-score |
| --- | --- |
| C=CCC1(C(C)CCC)C(=O)N=C(S)NC1=O (configuration not stated) [THIAMYLAL SODIUM    Therap cat: anesthetic] | -0.109 ± 2.4 |
| CCN(CC)C(C)C(=O)c1ccccc1 (configuration not stated) [Prestw-1471] | -0.739 ± 0.17 |
| Oc1cc(Cl)ccc1Oc1ccc(Cl)cc1Cl [Prestw-1479] | 0.666 ± 0.91 |
| CC1(C)C(C=C(Cl)Cl)C1C(=O)OC(C#N)c1cccc(Oc2ccccc2)c1 (configuration not stated) [CYPROMETHIN    Therap cat: insecticide] | 0.956 ± 2.7 |
| COc1ccc(Cc2nccc3cc(OC)c(OC)cc23)cc1OC [Prestw-583] | -0.542 ± 0.97 |
| CCC1(CC)C(=O)C=CNC1=O [Prestw-803] | 0.402 ± 0.59 |
| CC(C)C[C@@H](NC(=O)CNC(=O)[C@@H](NC=O)C(C)C)C(=O)N[C@@H](C)C(=O)N[C@@H](C(=O)N[C@H](C(=O)N[C@@H](C(=O)N[C@@H](Cc1c[nH]c2ccccc12)C(=O)N[C@H](CC(C)C)C(=O)N[C@@H](Cc1c[nH]c2ccccc12)C(=O)N[C@H](CC(C)C)C(=O)N[C@@H](Cc1c[nH]c2ccccc12)C(=O)N[C@H](CC(C)C)C(=O)N[C@@H](Cc1c[nH]c2ccccc12)C(=O)NCCO)C(C)C)C(C)C)C(C)C [GRAMICIDIN    Therap cat: antibacterial] | -4.91 ± 1.2 |
| COC(=O)C1=CCCN(C)C1 [Acetylcholine receptor agonist] | 0.341 ± 0.8 |
| COc1cc2c(cc1OC)[C@@]13CCN4CC5=CCO[C@H]6CC(=O)N2[C@H]1[C@H]6[C@H]5C[C@H]43 | 1.48 ± 2.7 |
| Fc1ccc(C(OCCN2CCN(CCCc3ccccc3)CC2)c2ccc(F)cc2)cc1 [Prestw-386] | -4.5 ± 1.9 |
| CC(C)(C)NCC(O)c1cc(Cl)c(N)c(Cl)c1 (configuration not stated) [Prestw-345] | -0.731 ± 1.2 |
| O=C(NC(=O)c1c(F)cccc1F)Nc1cc(Cl)c(OC(F)(F)C(F)C(F)(F)F)cc1Cl (configuration not stated) | -0.37 ± 0.38 |
| CCNC1(c2cccs2)CCCCC1=O (configuration not stated) [Prestw-1022] | -0.351 ± 0.62 |
| CC[C@H]1[C@@H]2C[C@H]3[C@@H]4N(C)c5ccccc5[C@]45C[C@@H]([C@@H]2[C@H]5O)N3[C@@H]1O | -0.849 ± 0.46 |
| C[C@@H]1CC[C@H]2[C@@H](C)C(=O)O[C@@H]3O[C@@]4(C)CC[C@@H]1[C@]32OO4 [Prestw-498] | 1.23 ± 1.3 |
| CCC1(c2cccc(O)c2)CCCCN(C)C1 (configuration not stated) [Prestw-1004] | 1.06 ± 1 |
| CNC(C)C(O)c1ccccc1 (configuration not stated) | 1.78 ± 2 |
| CC[C@H]1CN2CCc3cc(OC)c(OC)cc3[C@@H]2C[C@@H]1C[C@H]1NCCc2cc(OC)c(OC)cc21 | 1.87 ± 2 |
| COc1cc([C@@H]2c3cc4c(cc3[C@H](O)[C@H]3COC(=O)[C@H]23)OCO4)cc(OC)c1OC [Prestw-782] | -3.59 ± 1.3 |
| NCCc1c[nH]c2ccc(O)cc12 [Prestw-481] | 0.54 ± 1.2 |
| CCN(C(C)=O)c1cccc(-c2ccnc3c(C#N)cnn23)c1 [Prestw-1369] | 0.984 ± 1.3 |
| CCC(COC(=O)c1cc(OC)c(OC)c(OC)c1)(c1ccccc1)N(C)C (configuration not stated) | 0.146 ± 1.1 |
| C[N+]12CCC(CC1)C(OC(=O)C(O)(c1ccccc1)c1ccccc1)C2 (configuration not stated) [Prestw-822] | -0.565 ± 0.031 |
| OC[C@@H](O)[C@H]1O[C@@H]2O[C@H](C(Cl)(Cl)Cl)O[C@@H]2[C@H]1O | -0.0246 ± 0.065 |
